Measured values taken from article PMC9729194.
No constants are given. Whether binding was seen depends on the method and setting. Binding seen in cells or lysates may run through a third protein. Some entries that bind do so weakly or less than the wild type.

Chains of the proteins cited; added tags and fusions are not shown.
UniProt Q92754: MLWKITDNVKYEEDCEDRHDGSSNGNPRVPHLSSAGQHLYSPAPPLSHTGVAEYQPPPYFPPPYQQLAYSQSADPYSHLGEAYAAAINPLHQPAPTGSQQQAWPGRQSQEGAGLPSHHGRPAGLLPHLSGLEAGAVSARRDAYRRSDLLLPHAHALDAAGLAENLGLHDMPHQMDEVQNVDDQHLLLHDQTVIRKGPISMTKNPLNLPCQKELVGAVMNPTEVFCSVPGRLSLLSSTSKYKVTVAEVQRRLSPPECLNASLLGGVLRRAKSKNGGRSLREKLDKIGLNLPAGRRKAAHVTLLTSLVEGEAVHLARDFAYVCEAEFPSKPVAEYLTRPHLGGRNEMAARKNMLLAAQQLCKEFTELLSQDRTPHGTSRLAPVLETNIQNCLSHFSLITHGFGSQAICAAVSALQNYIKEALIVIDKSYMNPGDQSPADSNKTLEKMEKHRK

Biological target: T1, Hematological and neurological expressed 1 like (HN1L) (human) (UniProt Q9H910)
T1 sequence: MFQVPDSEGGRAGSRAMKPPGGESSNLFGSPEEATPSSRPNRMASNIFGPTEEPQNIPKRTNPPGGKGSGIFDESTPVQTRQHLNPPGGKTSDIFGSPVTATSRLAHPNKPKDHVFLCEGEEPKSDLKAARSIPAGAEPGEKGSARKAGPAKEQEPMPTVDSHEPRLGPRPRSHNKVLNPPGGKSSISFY
Experiment: co-IP; KYSE30-HN1L cells lysed in NP-40 lysis buffer on ice; IP with anti-HN1L antibody (ab200571) on Dynabeads Protein A; HN1L and AP-2γ detected by western blotting

transcription factor AP-2γ (from UniProt Q92754 1-450)
binding: binds
